Data: paper PMC10493204

Amino acid sequences for entries named in this document (tags omitted). A change or cut given only in a name is not applied to a line headed by its entry.
UniProt Q99N13: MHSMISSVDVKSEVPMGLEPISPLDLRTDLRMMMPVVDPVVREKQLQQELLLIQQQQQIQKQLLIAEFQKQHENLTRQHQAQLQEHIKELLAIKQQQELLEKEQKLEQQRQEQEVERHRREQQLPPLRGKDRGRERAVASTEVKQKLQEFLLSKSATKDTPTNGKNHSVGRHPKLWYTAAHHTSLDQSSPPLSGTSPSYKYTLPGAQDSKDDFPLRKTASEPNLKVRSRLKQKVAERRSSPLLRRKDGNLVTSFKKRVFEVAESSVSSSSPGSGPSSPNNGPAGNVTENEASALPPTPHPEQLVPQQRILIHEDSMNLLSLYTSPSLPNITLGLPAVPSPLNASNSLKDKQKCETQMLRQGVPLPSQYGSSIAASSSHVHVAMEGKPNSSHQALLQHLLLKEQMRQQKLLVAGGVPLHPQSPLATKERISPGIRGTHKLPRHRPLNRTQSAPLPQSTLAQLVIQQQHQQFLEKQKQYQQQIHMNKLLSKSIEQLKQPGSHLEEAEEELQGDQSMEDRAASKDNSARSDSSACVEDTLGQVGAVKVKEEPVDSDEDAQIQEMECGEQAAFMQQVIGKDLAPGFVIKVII
UniProt P07356: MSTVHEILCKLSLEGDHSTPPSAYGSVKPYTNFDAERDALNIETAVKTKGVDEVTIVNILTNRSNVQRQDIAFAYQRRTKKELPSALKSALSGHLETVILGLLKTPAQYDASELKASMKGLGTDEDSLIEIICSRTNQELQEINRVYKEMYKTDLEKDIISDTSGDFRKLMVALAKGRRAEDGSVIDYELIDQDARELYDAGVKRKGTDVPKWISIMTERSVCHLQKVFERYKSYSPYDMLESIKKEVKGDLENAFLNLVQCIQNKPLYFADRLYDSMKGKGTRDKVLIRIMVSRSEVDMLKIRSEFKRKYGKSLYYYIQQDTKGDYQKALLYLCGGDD
UniProt Q61879: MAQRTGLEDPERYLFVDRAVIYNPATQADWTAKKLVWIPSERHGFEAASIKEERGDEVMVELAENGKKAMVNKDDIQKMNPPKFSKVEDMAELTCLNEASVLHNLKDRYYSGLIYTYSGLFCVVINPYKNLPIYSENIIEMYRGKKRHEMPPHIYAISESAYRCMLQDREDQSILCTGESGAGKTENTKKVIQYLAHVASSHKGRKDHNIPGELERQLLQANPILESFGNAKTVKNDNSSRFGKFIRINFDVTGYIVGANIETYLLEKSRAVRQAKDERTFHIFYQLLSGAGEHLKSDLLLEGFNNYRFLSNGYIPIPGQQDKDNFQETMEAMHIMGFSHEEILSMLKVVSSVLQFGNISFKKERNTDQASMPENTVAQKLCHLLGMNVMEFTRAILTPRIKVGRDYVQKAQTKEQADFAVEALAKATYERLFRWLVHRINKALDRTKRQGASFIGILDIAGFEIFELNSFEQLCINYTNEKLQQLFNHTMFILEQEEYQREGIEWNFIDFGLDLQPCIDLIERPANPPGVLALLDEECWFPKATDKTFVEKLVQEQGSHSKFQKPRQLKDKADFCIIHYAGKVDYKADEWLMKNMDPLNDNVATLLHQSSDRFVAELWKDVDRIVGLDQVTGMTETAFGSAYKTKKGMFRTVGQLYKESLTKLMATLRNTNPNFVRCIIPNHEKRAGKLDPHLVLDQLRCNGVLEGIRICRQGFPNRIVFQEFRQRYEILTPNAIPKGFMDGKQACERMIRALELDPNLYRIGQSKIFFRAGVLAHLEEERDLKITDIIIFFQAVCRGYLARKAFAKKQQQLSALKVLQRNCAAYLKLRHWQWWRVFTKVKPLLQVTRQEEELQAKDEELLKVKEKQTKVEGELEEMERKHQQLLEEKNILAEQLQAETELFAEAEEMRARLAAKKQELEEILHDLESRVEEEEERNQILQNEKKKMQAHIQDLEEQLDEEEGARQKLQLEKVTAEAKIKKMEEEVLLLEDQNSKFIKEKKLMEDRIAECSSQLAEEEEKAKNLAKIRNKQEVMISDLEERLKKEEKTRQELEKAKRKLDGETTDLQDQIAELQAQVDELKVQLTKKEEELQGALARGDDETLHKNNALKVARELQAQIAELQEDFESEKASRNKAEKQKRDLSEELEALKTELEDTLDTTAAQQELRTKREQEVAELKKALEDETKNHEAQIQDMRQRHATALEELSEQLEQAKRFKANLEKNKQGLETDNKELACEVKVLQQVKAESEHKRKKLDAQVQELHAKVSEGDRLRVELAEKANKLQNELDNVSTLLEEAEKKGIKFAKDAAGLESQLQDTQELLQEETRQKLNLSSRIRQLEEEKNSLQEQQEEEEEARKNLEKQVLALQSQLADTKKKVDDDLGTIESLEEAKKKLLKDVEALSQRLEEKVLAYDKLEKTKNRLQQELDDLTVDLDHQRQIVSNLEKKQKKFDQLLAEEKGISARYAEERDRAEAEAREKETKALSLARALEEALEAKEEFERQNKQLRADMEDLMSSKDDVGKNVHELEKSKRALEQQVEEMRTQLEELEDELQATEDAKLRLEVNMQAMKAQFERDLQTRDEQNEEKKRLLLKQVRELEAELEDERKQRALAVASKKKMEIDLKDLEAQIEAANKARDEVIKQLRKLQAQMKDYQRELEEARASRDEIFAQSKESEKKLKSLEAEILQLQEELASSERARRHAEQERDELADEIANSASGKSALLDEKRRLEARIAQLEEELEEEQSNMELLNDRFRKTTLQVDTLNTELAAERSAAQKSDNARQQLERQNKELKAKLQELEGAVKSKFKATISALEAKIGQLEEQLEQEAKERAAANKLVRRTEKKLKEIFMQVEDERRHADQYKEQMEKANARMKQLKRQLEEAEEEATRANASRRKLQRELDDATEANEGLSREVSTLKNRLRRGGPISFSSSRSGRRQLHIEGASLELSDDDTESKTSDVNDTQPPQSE

Target: Histone deacetylase 9 (mouse (endogenous in hippocampus)) (UniProt Q99N13)
Assay: affinity purification with mass spectrometry; immunoprecipitation of HDAC9 from hippocampus of mice exposed or not to CRS, mass spectrometry of the co-immunoprecipitated proteins

## Annexin A2 (from UniProt P07356 1-339)
  binding: binds

## Myh10 (from UniProt Q61879 1-1976)
  binding: binds

These are yes or no findings as the source states them, for the method shown. In cells and extracts the contact can be indirect. A yes stands for co-enrichment or nearness to the bait. Other partners may have been found.
